Source: patent publication US20230027026A1, “FUSED PYRIMIDINE COMPOUNDS, COMPOSITIONS AND MEDICINAL APPLICATIONS THEREOF” (JUBILANT BIOSYS LIMITED, priority 2019, published 2023)

Amino acid sequences for entries named in this document (tags omitted). Chains listed by the source or under a name are the forms on record and can include a tag or linker. Residues count along the entry.
UniProt P00533, with tags, fused parts or gaps DUP767-769: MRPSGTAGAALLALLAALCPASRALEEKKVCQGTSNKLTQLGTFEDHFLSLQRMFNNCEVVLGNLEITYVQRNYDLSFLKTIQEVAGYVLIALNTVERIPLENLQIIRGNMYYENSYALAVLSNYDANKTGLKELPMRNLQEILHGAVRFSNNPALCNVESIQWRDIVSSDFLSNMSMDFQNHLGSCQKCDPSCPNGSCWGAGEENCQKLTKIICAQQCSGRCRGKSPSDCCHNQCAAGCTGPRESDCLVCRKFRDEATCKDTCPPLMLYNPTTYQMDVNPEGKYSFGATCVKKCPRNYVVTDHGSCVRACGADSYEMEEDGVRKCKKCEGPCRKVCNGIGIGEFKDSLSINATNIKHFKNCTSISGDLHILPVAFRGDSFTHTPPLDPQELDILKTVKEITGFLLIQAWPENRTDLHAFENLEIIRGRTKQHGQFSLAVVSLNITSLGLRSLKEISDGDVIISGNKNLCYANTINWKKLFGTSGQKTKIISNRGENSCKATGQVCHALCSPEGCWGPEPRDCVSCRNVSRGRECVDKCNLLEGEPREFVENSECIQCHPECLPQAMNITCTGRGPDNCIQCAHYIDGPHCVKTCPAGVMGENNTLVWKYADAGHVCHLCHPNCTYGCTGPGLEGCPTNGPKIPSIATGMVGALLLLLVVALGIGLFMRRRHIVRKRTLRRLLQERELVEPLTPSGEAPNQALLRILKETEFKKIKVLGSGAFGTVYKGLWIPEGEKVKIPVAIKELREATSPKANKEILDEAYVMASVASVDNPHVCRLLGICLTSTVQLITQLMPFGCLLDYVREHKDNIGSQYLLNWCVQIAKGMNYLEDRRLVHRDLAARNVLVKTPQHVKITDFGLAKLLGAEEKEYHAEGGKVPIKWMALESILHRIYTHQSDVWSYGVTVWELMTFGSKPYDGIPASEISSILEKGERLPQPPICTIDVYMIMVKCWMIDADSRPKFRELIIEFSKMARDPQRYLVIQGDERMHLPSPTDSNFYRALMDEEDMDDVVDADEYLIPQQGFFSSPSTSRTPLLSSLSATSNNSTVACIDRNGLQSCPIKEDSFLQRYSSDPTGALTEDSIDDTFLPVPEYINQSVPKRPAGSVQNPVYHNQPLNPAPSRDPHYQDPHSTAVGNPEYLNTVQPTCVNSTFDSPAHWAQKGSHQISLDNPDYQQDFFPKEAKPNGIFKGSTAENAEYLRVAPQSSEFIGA
UniProt P00533, with tags, fused parts or gaps DUP768-770: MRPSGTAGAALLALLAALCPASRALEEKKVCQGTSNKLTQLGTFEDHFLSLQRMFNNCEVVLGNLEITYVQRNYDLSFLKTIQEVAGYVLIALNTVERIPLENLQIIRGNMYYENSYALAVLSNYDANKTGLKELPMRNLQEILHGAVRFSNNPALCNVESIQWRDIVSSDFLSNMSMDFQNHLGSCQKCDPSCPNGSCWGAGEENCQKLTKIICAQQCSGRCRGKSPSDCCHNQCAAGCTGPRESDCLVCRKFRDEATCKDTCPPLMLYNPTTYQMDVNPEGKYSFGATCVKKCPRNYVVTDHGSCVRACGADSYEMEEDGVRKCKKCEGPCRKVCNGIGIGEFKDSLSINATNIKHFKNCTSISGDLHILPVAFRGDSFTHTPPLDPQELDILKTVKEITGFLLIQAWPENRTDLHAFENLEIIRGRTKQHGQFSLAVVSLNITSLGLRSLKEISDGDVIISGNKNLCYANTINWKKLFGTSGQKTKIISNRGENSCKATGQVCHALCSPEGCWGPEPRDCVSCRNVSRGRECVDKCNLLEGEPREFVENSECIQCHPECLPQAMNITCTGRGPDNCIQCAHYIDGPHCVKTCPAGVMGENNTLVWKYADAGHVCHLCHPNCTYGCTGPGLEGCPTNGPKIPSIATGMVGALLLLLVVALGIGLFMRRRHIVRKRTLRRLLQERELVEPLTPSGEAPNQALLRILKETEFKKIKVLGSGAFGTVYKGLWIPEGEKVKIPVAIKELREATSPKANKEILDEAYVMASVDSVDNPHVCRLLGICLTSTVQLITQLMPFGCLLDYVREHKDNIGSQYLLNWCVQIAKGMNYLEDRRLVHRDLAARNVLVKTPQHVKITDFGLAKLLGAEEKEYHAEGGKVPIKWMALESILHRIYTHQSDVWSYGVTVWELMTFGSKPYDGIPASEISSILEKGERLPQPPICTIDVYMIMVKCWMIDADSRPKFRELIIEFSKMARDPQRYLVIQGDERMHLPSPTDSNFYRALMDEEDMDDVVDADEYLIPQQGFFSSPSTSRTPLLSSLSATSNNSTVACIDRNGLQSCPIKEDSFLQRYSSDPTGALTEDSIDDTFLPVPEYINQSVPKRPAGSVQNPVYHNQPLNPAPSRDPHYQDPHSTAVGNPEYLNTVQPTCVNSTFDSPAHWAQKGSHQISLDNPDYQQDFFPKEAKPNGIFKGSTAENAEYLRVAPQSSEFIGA
UniProt P00533, 25-1210 T790M/L858R limits assumed: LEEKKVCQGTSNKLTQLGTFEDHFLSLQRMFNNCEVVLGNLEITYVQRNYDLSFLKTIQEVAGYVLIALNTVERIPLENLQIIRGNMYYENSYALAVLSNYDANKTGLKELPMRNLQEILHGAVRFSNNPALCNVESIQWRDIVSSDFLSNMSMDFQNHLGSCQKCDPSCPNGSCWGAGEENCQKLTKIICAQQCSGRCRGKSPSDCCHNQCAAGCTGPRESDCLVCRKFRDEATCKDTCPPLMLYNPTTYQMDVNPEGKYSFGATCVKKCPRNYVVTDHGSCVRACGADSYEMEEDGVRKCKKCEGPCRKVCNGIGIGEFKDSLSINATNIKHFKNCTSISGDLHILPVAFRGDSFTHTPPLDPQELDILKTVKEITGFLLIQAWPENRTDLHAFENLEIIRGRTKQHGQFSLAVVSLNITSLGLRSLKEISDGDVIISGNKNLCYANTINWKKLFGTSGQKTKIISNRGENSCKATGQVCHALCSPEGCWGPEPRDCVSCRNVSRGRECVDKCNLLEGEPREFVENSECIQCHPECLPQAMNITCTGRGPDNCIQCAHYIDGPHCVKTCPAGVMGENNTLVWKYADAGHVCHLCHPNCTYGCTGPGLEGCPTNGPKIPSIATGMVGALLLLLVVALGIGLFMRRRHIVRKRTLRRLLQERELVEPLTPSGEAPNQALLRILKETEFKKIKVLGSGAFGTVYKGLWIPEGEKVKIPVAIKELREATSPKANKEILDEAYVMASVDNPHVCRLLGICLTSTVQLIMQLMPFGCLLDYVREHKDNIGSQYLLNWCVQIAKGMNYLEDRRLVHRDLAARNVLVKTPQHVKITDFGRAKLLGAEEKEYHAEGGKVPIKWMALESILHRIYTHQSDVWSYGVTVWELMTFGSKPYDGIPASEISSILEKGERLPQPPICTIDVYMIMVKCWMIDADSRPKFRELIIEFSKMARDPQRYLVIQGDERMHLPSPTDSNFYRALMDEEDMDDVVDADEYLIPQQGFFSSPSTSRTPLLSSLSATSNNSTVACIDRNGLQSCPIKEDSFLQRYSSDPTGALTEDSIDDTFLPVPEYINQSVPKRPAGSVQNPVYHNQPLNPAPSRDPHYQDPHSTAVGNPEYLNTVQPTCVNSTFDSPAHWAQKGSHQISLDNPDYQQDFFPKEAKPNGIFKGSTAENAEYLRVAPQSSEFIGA
UniProt P04626, with tags, fused parts or gaps DUP772-775: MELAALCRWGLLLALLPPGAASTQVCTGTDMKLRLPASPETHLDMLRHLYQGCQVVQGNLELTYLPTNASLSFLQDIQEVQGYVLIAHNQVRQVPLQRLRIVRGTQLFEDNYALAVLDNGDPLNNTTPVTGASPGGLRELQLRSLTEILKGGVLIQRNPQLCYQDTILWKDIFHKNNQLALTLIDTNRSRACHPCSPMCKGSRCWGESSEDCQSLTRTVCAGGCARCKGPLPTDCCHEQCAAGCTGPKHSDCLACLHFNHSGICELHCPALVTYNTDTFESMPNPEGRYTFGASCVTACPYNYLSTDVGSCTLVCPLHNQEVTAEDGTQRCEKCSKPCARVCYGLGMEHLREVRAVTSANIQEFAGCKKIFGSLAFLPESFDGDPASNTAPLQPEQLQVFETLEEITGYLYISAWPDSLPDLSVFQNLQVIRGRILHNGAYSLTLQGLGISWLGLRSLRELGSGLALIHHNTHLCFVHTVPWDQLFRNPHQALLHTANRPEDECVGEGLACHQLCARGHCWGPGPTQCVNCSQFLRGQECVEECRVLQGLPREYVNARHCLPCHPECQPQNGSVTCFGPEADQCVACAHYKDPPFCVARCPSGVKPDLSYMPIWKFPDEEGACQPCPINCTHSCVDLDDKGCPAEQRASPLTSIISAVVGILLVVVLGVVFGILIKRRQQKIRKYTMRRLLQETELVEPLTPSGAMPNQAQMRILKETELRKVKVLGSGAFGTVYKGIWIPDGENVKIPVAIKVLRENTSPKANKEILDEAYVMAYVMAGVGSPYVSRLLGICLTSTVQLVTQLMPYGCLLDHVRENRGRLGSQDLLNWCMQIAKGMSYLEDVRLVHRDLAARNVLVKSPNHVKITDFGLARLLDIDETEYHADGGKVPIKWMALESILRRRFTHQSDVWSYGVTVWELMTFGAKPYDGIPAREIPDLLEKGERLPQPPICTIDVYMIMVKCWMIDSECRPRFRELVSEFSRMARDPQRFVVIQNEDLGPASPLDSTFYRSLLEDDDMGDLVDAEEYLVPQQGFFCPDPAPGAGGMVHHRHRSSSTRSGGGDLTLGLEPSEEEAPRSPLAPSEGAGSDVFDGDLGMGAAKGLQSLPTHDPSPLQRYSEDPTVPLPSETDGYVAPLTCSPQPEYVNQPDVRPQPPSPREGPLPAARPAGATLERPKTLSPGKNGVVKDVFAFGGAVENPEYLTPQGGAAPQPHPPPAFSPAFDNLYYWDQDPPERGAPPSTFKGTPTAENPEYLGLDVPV

Tests used:
[1] = system: A431 cells; experiment: Cellular proliferation (Alamar Blue) assay, A431; details: read-out: A431 IC50, 72 hr
Protocol: (§1) Example 3: Cellular Proliferation (Alamar Blue) Assays
(§2) • 1. EGFR(D770_N771insSVD) expressing Ba/F3 stable cell line • 2. EGFR (A767_dupASV) expressing Ba/F3 stable cell line • 3. A431 cells • 4. BTER2 (A775_G776insYVMA) expressing Ba/F3 stable cell line • 5. BTER2 (WT) expressing Ba/F3 stable cell line • 6. BT-474 cells
(§3) • 1. Seed cells at 5000 for A431 and 15,000 cells for Ba/F3 in 100 μL/well in complete media (for A431: DMEM with 10% FBS and for Ba/F3 cells: RPMI with 10% FBS) in 96-well tissue culture plate. Leave outer wells without cells for background measurements. Incubate at 37 degree Celsius in 5% CO2 humidified incubator for 16-18 hours. • 2. Add 0.025 ml of 5× concentration compound dilution or DMSO control. Final compound concentration range is 10-0.0005 μM prepared in 3-fold serial dilutions. Incubate for 72 hr at 37 degree Celsius in […] humidified incubator. • 3. Add 0.0125 mL Alamar Blue™ reagent to each well with multi-channel pipette and tap gently on each side of the plate to mix. Incubate for 3 hours at 37 degree Celsius in […] humidified incubator. • 4. Read plates on fluorescence reader (Tecan Spark Control, Device: Spark, Serial #: 1801006040) at 540 nm excitation, 590 nm emission wavelength. • 5. Data analysis was performed using XLfit 5.5.0.5.

[2] = target: EGFR (A767_dupASV) expressing Ba/F3 stable cell line (Homo sapiens, UniProt P00533, DUP767-769, cells depend on it); experiment: Cellular proliferation (Alamar Blue) assay, EGFR A767_dupASV Ba/F3; details: read-out: A767 IC50, EGFR A767_dupASV Ba/F3, 72 hr
Protocol: as §1, §2, §3

[3] = target: EGFR(D770_N771insSVD) expressing Ba/F3 stable cell line (Homo sapiens, UniProt P00533, DUP768-770, cells depend on it); experiment: Cellular proliferation (Alamar Blue) assay, EGFR D770_N771insSVD Ba/F3; details: read-out: D770 IC50, EGFR D770_N771insSVD Ba/F3, 72 hr
Protocol: as §1, §2, §3

[4] = target: EGFR (T790M/L858R) (Homo sapiens, UniProt P00533, L858R/T790M); experiment: EGFR L858R/T790M enzyme inhibition assay (HTRF); details: read-out: EGFR_L858R T790M_IC50_nM, 5 μM ATP, 60 min
Protocol: Example 2: EGFR L858R & Del19/T790M Assay Protocol (to Find the IC50 for the Compounds Using HTRF Method)
Reagents for Enzyme Assay:
• 1. Enzyme Assay Buffer: 60 mM HEPES (pH 7.4), 50 mM NaCl, 20 mM MgCl2, 5 mM MnCl2, filtered using 0.2 μm pore size, stored at 4° C. • Supplements (added fresh to the enzyme buffer): 1M DTT stock was made, 5% BSA stock and 0.1M Na3OV4 stored at 4° C. Enzyme assay buffer 50 mL, 1 M DTT 100 μL, 5% BSA 500 μL, 0.1 M Na3OV4 50 μL. • 2. GST-hEGFR (L858R), active: EGFR (T790M/L858R), active (Proqinase), 3.6 μM stock; 2.5 nM in final assay. • 3. Gastrin Precusor-Biotinylated: Gastrin precursor (Tyr87) biotinylated peptide, EEAY*GWM, Cell Signaling Tech 1310, Lot-7, Want final 0.5 μM in assay. • 4. ATP: 10 mM stock in 100 μL Enzyme assay buffer pH 7.4 prepared freshly, want 5 μM in final assay. • 5. Test compounds: Powders were dissolved in 100% DMSO and made up to a final stock concentration of 10 mM (volume in μL to add for 10 mM=mg powder X 10^5/MW). Final compound concentration in the assay plate started at 10 μM.
• 1. […]
• 1. […] The reading was taken in Pherastar (ext 337 nm, Em 665 & 620 nm). • 9. The results were analyzed using Graphpad prism after calculation of the z factor, signal window and % inhibition to get the IC50.

[5] = system: H1975 cells (L858R_T790M mutant); experiment: H1975 proliferation assay; format: cell-based; details: read-out: Proliferation_Assay H1975 cells-EC50_nM L858R_T790M_mutant
[6] = target: HER2 (A775_G776insYVMA) expressing Ba/F3 stable cell line (Homo sapiens, UniProt P04626, DUP772-775, cells depend on it); experiment: Cellular proliferation (Alamar Blue) assay, HER2 YVMA Ba/F3; details: read-out: YVMA IC50, HER2 A775_G776insYVMA Ba/F3, 72 hr
Protocol: as §1, §2, §3

Row | Compound | pIC50 [1] | GI50 [2] | GI50 [3] | pIC50 [4] | pEC50 [5] | GI50 [6]
1 | CN(C)C/C=C/C(=O)Nc1cccc(N2C(=O)N(Cc3ccccc3)Cc3cnc(Nc4cnn5ccccc45)nc32)c1 | ≤ 5.00 | 329 nM | 645 nM | – | – | –
2 | C=CC(=O)NC1CCCC(N2C(=O)N(Cc3ccccc3)Cc3cnc(Nc4cc(C)ns4)nc32)C1 (stereo not shown) | 6.82 | 417 nM | 149 nM | 7.55 | 7.12 | –
3 | CN(C)C/C=C/C(=O)Nc1cccc(N2C(=O)N(Cc3ccccc3)Cc3cnc(Nc4cn(C)nc4F)nc32)c1 | ≤ 5.00 | 394 nM | 980 nM | – | – | 125 nM
4 | C=CC(=O)Nc1cccc(N2C(=O)N(Cc3ccc(F)nc3)Cc3cnc(Nc4cn(C)nc4Cl)nc32)c1 | < 5.00 | 347 nM | 374 nM | – | – | 452 nM

pEC50, pIC50: −log10 of the molar value. The structures given here were assigned with low confidence; some may be wrong.
